Read-outs that look alike come from different tables or passages of the source. These are yes or no findings as the source states them, for the method shown. In cells and extracts the contact can be indirect. Some results given as binding are weak or reduced against the parent protein; the word gives no strength. Tags and fused reporters may be left off the sequences shown. Blank lines part the entries; values can stand above or below the molecule they belong to.
Tests used:
[1] = target: T1, full length GFP-tagged NBR1 (GFP-NBR1^FL) (UniProt Q14596); test: co-IP
T1 sequence: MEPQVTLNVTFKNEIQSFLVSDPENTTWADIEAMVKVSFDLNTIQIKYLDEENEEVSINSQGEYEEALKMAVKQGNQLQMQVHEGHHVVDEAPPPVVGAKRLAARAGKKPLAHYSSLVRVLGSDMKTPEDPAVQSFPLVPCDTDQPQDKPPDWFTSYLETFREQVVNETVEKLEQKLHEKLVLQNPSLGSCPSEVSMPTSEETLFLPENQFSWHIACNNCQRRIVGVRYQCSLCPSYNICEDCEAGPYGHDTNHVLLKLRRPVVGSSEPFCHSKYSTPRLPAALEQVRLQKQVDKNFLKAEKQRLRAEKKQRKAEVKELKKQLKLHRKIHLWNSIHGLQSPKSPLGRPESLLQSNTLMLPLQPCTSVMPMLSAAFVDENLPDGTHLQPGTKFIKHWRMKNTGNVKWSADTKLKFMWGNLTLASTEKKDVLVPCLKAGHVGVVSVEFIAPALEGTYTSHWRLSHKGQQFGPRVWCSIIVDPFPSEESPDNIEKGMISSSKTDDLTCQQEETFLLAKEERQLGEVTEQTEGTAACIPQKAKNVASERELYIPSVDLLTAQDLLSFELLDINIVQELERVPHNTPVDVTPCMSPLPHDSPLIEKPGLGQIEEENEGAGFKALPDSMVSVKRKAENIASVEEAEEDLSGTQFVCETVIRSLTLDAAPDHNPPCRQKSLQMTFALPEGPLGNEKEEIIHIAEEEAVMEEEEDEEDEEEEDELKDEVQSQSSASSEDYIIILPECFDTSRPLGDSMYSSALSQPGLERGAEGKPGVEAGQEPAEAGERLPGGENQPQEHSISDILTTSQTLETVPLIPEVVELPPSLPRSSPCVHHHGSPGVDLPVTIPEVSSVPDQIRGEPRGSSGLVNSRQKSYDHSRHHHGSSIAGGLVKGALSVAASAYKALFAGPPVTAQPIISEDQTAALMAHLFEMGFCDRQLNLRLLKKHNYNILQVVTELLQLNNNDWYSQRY

By UniProt entry, the sequences of proteins in these tests, tags left out.
UniProt Q9H6L5: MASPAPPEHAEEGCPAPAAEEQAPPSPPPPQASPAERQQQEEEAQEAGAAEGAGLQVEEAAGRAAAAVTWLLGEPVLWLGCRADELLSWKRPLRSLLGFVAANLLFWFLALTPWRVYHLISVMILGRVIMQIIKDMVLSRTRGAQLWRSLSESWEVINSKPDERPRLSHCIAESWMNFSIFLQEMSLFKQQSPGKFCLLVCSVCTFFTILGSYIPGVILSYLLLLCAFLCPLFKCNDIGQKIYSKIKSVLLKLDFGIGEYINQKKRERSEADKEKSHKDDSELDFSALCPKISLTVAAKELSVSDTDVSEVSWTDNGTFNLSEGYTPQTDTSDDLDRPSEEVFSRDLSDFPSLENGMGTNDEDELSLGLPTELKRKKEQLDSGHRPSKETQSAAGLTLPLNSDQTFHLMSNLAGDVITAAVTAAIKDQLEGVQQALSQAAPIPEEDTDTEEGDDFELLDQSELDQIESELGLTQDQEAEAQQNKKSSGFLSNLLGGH

[2] = target: T1, full length GFP-tagged NBR1 (GFP-NBR1^FL); test: co-IP; remark: listed apart in the source

- binding [1]: binds weakly
Molecule: FAM134B (from UniProt Q9H6L5 1-497)

- binding [2]: binds
B1: CCPG1 (protein, UniProt Q9ULG6 1-757)
chain: MSENSSDSDSSCGWTVISHEGSDIEMLNSVTPTDSCEPAPECSSLEQEELQALQIEQGESSQNGTVLMEETAYPALEETSSTIEAEEQKIPEDSIYIGTASDDSDIVTLEPPKLEEIGNQEVVIVEEAQSSEDFNMGSSSSSQYTFCQPETVFSSQPSDDESSSDETSNQPSPAFRRRRARKKTVSASESEDRLVAEQETEPSKELSKRQFSSGLNKCVILALVIAISMGFGHFYGTIQIQKRQQLVRKIHEDELNDMKDYLSQCQQEQESFIDYKSLKENLARCWTLTEAEKMSFETQKTNLATENQYLRVSLEKEEKALSSLQEELNKLREQIRILEDKGTSTELVKENQKLKQHLEEEKQKKHSFLSQRETLLTEAKMLKRELERERLVTTALRGELQQLSGSQLHGKSDSPNVYTEKKEIAILRERLTELERKLTFEQQRSDLWERLYVEAKDQNGKQGTDGKKKGGRGSHRAKNKSKETFLGSVKETFDAMKNSTKEFVRHHKEKIKQAKEAVKENLKKFSDSVKSTFRHFKDTTKNIFDEKGNKRFGATKEAAEKPRTVFSDYLHPQYKAPTENHHNRGPTMQNDGRKEKPVHFKEFRKNTNSKKCSPGHDCRENSHSFRKACSGVFDCAQQESMSLFNTVVNPIRMDEFRQIIQRYMLKELDTFCHWNELDQFINKFFLNGVFIHDQKLFTDFVNDVKDYLRNMKEYEVDNDGVFEKLDEYIYRHFFGHTFSPPYGPRSVYIKPCHYSSL

Source: doi:10.1101/2024.10.27.620516
